At least one structure is not confirmed: it was looked up by name or label, or the drawing left a doubt.
System: α-glucosidase
Assay: in vitro α-glucosidase inhibition test (pNPG substrate, OD 405 nm); combination index by Chou-Talalay method with CompuSyn
Type: biochemical, Saccharomyces cerevisiae
Settings: positive control, 350 μg/mL
Method: α-glucosidase (coming from Saccharomyces cerevisiae, Sigma);
an α-glucosidase solution with a concentration being 0.25 U/mL and a substrate p-nitrophenyl-α-D-glucopyranoside (pNPG) solution with a concentration being […] were prepared by using a PBS buffer solution (0.1 mol L−1 pH 6.8).
40 μL α-glucosidase solution was accurately removed, 100 μL of sample solution to be tested was added respectively, reacted for 10 min at 37° C., then 60 μL of substrate p-nitrophenyl-α-D-glucopyranoside (pNPG) solution was added, reacted for 15 min at 37° C., and an enzyme-linked analyzer measured at a wavelength of 405 nm.
First, daidzein, taxifolin, and 3-O-methyl quercetin were respectively prepared into 10 mg/mL mother solutions by using dimethyl sulfoxide (DMSO); and then a sample solution of the specific concentration of the daidzein, taxifolin, and 3-O-methyl quercetin and composition was prepared with PBS buffer solution.

Structure (SMILES): C[C@H]1O[C@H](O[C@H]2[C@H](O)[C@@H](O)[C@@H](O[C@H]3[C@H](O)[C@@H](O)C(O)O[C@@H]3CO)O[C@@H]2CO)[C@H](O)[C@@H](O)[C@@H]1N[C@H]1C=C(CO)[C@@H](O)[C@H](O)[C@H]1O (stereo partly shown) [acarbose]
- Inhibition rate: 46.25±3.5%

Source: US11753388B2, “Composition for inhibiting alpha-glucosidase and application thereof” (ZHENGZHOU FRUIT RESEARCH INSTITUTE, CHINESE ACADEMY OF …, priority 2021, dated 2023)
